Measured values as given in PubChem BioAssay AID504834 (National Center for Advancing Translational Sciences (NCATS), 2011).
Screen size: about 320,000 compounds; about 22,000 (6.9%) were called active. This list was built around the results that the source calls inconclusive (neither active nor inactive); the mix of calls is not that of the screen. Calls come from the whole dose curve; as a rule, active = well fitted inhibition curve with a large enough effect; inconclusive = small, poorly fitted or top-dose-only effect, or another doubt; inactive = no such curve, though single readings can be large or run the other way. A potency beside an inconclusive call is a rough fit, not a confirmed value.

test: Primary qHTS for delayed death inhibitors of the malarial parasite plastid, 96 hour incubation; conditions: P. falciparum luciferase reporter growth; series mostly up to 28.7 µM
Summary of the method: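 P. falciparum expressing integrated firefly luciferase grown in erythrocytes (2% hematocrit, 0.05% parasitemia final) with compounds for 96 hours at 37 C, 5% CO2. Growth inhibition read as loss of luminescence after adding luciferase detection reagent.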
% is set by controls: 0 for no effect and ±100 for the full control effect; potency is the fitted concentration of half-maximal effect.

Row | Compound | Potency | activity change, negative = inhibition
1 | CCCCS(=O)(=O)N1CN(S(=O)(=O)CCCC)C2NC(=O)NC21 (stereo unspecified) | inactive | 
2 | Cc1oc2c(CN3CCOCC3)c(O)ccc2c(=O)c1-c1ccc(Br)cc1 | active: 13.1 µM | 
3 | CC(=O)c1cn(CCOc2ccc(F)cc2)c2ccccc12 | inconclusive: 18.5 µM [inhibitor, single point] | 
4 | Cc1[nH]n(-c2nc(-c3ccc(Cl)cc3)cs2)c(=O)c1N=Nc1ccc(O)cc1 | active: 6.57 µM | 
5 | CCOC(=O)/C(C#N)=C\c1ccc(N2CCN(C/C=C/c3ccccc3)CC2)cc1 | inconclusive: 14.7 µM [inhibitor, single point] | 
6 | COc1ccc(OC)c(Nc2nc3ccc(C)cc3n3cnnc23)c1 | inconclusive: 4.15 µM [inhibitor, partial curve, poor fit] | 
7 | O=C(Nc1ccccc1F)c1cnccn1 | inconclusive: 5.22 µM [inhibitor, partial curve, poor fit] | 
8 | O=C(NCc1ccc(Cl)cc1)c1cc2ccccn2n1 | inactive | 
9 | O=C(CN1C(=O)c2cccc([N+](=O)[O-])c2C1=O)OCC(=O)N1CCCCC1 | inactive | 
10 | C=CCC1C=CCC(CC=C)N1C(=O)c1ccccc1[N+](=O)[O-] (stereo unspecified) | inconclusive: 7.38 µM [inhibitor, partial curve, poor fit] | 
11 | COc1ccc(CN2C3CCC2CC(NC(=O)c2cc(OC)c(OC)c(OC)c2)C3)cc1 (stereo unspecified) | inconclusive: 18.5 µM [inhibitor, single point] | 
12 | COc1cccc(CNc2nc(-c3cccnc3)nc3ccccc23)c1 | inconclusive: 9.28 µM [inhibitor, partial curve, poor fit] | 
13 | O=C(O)CSc1nnc(NC(=O)CN2CCOCC2)s1 | inactive | 
14 | O=C(NCc1ccco1)c1ccc(Cl)s1 | inconclusive: 0.657 µM [inhibitor, single point] | 
15 | O=Cc1ccc(OCC(=O)NCC2CCCO2)cc1 (stereo unspecified) | inactive | 
16 | COc1cccc(/C=C/C(=O)OCC(=O)Nc2cccc(S(=O)(=O)N(C)C)c2)c1 | inconclusive: 3.7 µM [inhibitor, partial curve, poor fit] | 
17 | COc1cc(/C=C/C(=O)OCC(=O)Nc2cc(S(=O)(=O)N(C)C)ccc2Cl)ccc1O | inactive | 
18 | O=C(CN(C(=O)CNC(=O)c1ccco1)c1ccc2c(c1)OCO2)NC1CCCCC1 | inactive | 
19 | CCCCn1c(N)c(N(CC(C)C)C(=O)CSCc2ccc(Cl)c(Cl)c2)c(=O)[nH]c1=O | inconclusive: 4.15 µM [inhibitor, partial curve] | 
20 | Cc1onc(-c2ccccc2Cl)c1C(=O)N1CCc2ccccc21 | inconclusive: 11.7 µM [inhibitor, partial curve] | 
21 | O=C(O)c1ccc(COc2ccc3ccccc3c2/C=C2/NC(=O)N(c3ccccc3)C2=O)cc1 | inconclusive: 18.5 µM [inhibitor, single point] | 
22 | CN(Cc1ccccc1)C(=O)CCS(=O)(=O)c1ccc2c(c1)NC(=O)CS2 | inconclusive: 2.62 µM [inhibitor, full curve, poor fit] | 
23 | CNC(=O)C12CCC(C)(c3nc4cc(C)c(C)cc4nc31)C2(C)C (stereo unspecified) | inconclusive: 10.4 µM [inhibitor, single point] | 
24 | COc1ccc(/C=C\c2nc(=O)c3ccccc3o2)cc1 | inactive | 

Row | Compound | Potency | activity change, negative = inhibition
25 | N#CC(C(=O)O)=C1CCCC1 | inconclusive: 10.4 µM [inhibitor, single point] | 
26 | CCOc1cc(CN2CCCC(CNC(=O)c3ccc(F)cc3)C2)ccc1OC (stereo unspecified) | inconclusive: 2.33 µM [inhibitor, full curve] | 
27 | CN(C(=O)CSc1ncnc2ccccc12)C1CCS(=O)(=O)C1 (stereo unspecified) | inconclusive: 18.5 µM [inhibitor, single point] | 
28 | CC1CCN(S(=O)(=O)c2cc(C(=O)Nc3ccccn3)ccc2Br)CC1 | inconclusive: 8.28 µM [inhibitor, single point] | 
29 | CCOc1ccccc1CNS(=O)(=O)c1cnc[nH]1 | inconclusive: 18.5 µM [inhibitor, partial curve, poor fit] | 
30 | Cc1cccc(C)c1NC(=O)CNC(=O)c1cccnc1 | inactive | 
31 | CC1(C(=O)OCC(=O)NCCNC(=O)COC(=O)C2(C)CC2(Cl)Cl)CC1(Cl)Cl (stereo unspecified) | inconclusive: 0.0738 µM [inhibitor, full curve, poor fit] | 
32 | CCn1c(SCC(=O)NC(C)(C)C)nc(O)cc1=O | inconclusive: 16.5 µM [inhibitor, single point] | 
33 | Cc1c(CN2CCC(n3nccc3NC(=O)C3CC3)CC2)[nH]c2ccccc12 | inactive | 
34 | COc1ccccc1C(CNC(=O)CNC(=O)c1ccccc1Cl)N1CCCC1 (stereo unspecified) | inactive | 
35 | O=C(Nc1nc(-c2cc3ccccc3oc2=O)cs1)c1ccc(Br)o1 |  | inactive: -0.7% [at 5.75 µM]
36 | COC(=O)C1CCN(Cc2cn(-c3ccccc3)nc2-c2ccc3c(c2)OCO3)CC1 | inconclusive: 0.0026 µM [inhibitor, full curve, poor fit] | 
37 | CCCCCCCCCCCCCCCCCCO | inactive | 
38 | CSc1ncccc1C(=O)N(C)CC(=O)Nc1ccc(Cl)cc1 | inactive | 
39 | CC1CCN(c2c(NCc3ccc(C(=O)NCc4ccco4)cc3)c(=O)c2=O)CC1 | inconclusive: 10.4 µM [inhibitor, single point] | 
40 | CCCOc1ccccc1Cn1c(=O)oc2ccccc21 | inconclusive: 4.15 µM [inhibitor, single point] | 
41 | Cc1cc(=O)nc2c3ccccc3n(CC(=O)Nc3ccccc3Br)n12 | inconclusive: 14.7 µM [inhibitor, single point] | 
42 | COc1cc(OC)c(C2SCCN2S(=O)(=O)c2ccc(F)cc2)cc1OC (stereo unspecified) | inconclusive: 20.8 µM [inhibitor, partial curve, poor fit] | 
43 | CNCc1ccccc1Sc1ccc(OC)c(OC)c1 | inactive | 
44 | CCN(c1ccccc1)S(=O)(=O)c1cccc(C(=O)NCc2ccncc2)c1 | inactive | 
45 | O=C(NC(=S)Nc1ccc(CN2CCOCC2)cc1)c1cccc([N+](=O)[O-])c1 | inactive | 
46 | Cc1ccc(CNC(=O)c2ccc(C)c(S(=O)(=O)N3CCCCC3)c2)cc1 | inconclusive: 18.5 µM [inhibitor, single point] | 
47 | Cc1ccc(S(=O)(=O)NCC(=O)N2CCC(C)CC2)cc1 | inconclusive: 18.5 µM [inhibitor, single point] | 
48 | COc1cccc(CNC(=O)C2CCC(CNc3c(N4CCC(C)CC4)c(=O)c3=O)CC2)c1 (stereo unspecified) | inconclusive: 13.1 µM [inhibitor, partial curve, poor fit] | 

At a glance, some entries already given:
Row | Compound | Potency | activity change, negative = inhibition
20 | Cc1onc(-c2ccccc2Cl)c1C(=O)N1CCc2ccccc21 | inconclusive: 11.7 µM [inhibitor, partial curve] | 
21 | O=C(O)c1ccc(COc2ccc3ccccc3c2/C=C2/NC(=O)N(c3ccccc3)C2=O)cc1 | inconclusive: 18.5 µM [inhibitor, single point] | 
22 | CN(Cc1ccccc1)C(=O)CCS(=O)(=O)c1ccc2c(c1)NC(=O)CS2 | inconclusive: 2.62 µM [inhibitor, full curve, poor fit] | 
23 | CNC(=O)C12CCC(C)(c3nc4cc(C)c(C)cc4nc31)C2(C)C (stereo unspecified) | inconclusive: 10.4 µM [inhibitor, single point] | 
24 | COc1ccc(/C=C\c2nc(=O)c3ccccc3o2)cc1 | inactive | 

Next compounds.

Row | Compound | Potency | activity change, negative = inhibition
49 | O=C(CCc1ccc(S(=O)(=O)NCc2ccccc2)cc1)N1CCN(Cc2ccc3c(c2)OCO3)CC1 | inconclusive: 8.28 µM [inhibitor, partial curve] | 
50 | CCC(=O)Nc1sc2c(c1C(N)=O)CCN(Cc1ccccc1)C2 | inactive | 
51 | Nc1nc2n(n1)C(c1ccco1)CC(c1ccc(Cl)cc1Cl)N2 (stereo unspecified) | inconclusive: 1.17 µM [inhibitor, partial curve, poor fit] | 
52 | CCn1c(C)cs/c1=N\C(=S)Nc1ccccc1C | inconclusive: 0.586 µM [inhibitor, partial curve, poor fit] | 
53 | CC1CCc2c(C(=O)NCCN3CCOCC3)csc2C1 (stereo unspecified) | active: 8.28 µM | 
54 | N#Cc1cnn2cc(-c3ncc(C(F)(F)F)cc3Cl)cnc12 | inconclusive: 18.5 µM [inhibitor, single point] | 
55 | Cc1cc(C)cc(NC(=O)Nc2ccc(-n3ccc(C(F)(F)F)n3)cc2)c1 | inconclusive: 18.5 µM [inhibitor, single point] | 
56 | CCOc1ncccc1C(=O)Nc1cccc(-c2nc3cccnc3s2)c1 | inactive | 
57 | COCCn1c(-c2ccccc2)nc2oc3cc(OC)ccc3c(=O)c2c1=O | inconclusive: 5.22 µM [inhibitor, partial curve, poor fit] | 
58 | CC(=O)Nc1ccc(C(=O)NNS(=O)(=O)c2ccc(C)cc2)cc1 | inactive | 
59 | CN1CCN(Cc2nc3c(c(=O)n(C)c(=O)n3C)n2Cc2cccc3ccccc23)CC1 |  | inactive: 2.21% [at 5.75 µM]
60 | Cc1[nH]ccc(=O)c1OCc1ccccc1 | inactive | 
61 | CN(C)S(=O)(=O)c1cccc(NC(=S)N/N=C/c2ccco2)c1 | inconclusive: 4.15 µM [inhibitor, full curve, poor fit] | 
62 | CCCc1c(C)nc2ccc(OC)cc2c1SCCC(=O)O | active: 11.7 µM | 
63 | O=c1c(C(c2ccc(O)cc2)c2c(O)nc3n(c2=O)CCCS3)c(O)nc2n1CCCS2 | inconclusive: 4.15 µM [inhibitor, single point] | 
64 | O=[N+]([O-])c1ccc(OCC(O)CNCCNc2nccc(C(F)(F)F)n2)cc1 (stereo unspecified) | inconclusive: 11.7 µM [inhibitor, single point] | 
65 | O=C(NC1CCOC1)c1cc(COc2cccc(C(F)(F)F)c2)on1 (stereo unspecified) | inconclusive: 13.1 µM [inhibitor, partial curve, poor fit] | 
66 | Cc1ccc(S(=O)(=O)NNC(=O)c2ccc3ccccc3n2)cc1 | inconclusive: 9.28 µM [inhibitor, single point] | 
67 | Cc1cc(C)n2cc(CSCc3ccccc3)nc2n1 | inconclusive: 18.5 µM [inhibitor, single point] | 
68 | Cc1csc(SC(C)C(=O)NC2CCCCC2C)n1 (stereo unspecified) | inactive | 
69 | O=C(c1cc(C2CC2)nn1-c1ccccc1)N1CCN(S(=O)(=O)c2c(F)cccc2F)CC1 | inconclusive: 5.22 µM [inhibitor, partial curve] | 
70 | O=C(O)CCCCCN1C(=O)/C(=C\c2cn(-c3ccccc3)nc2-c2cccs2)SC1=S | inconclusive: 10.4 µM [inhibitor, single point] | 
71 | COc1ccccc1OCC(=O)Nc1ccc2c(c1)OCO2 | inactive | 
